Source: PubChem BioAssay AID743121 (NCATS, 2013)

Screen: 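Partners whose loss is lethal together with topoisomerase I blockade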 (primary screen)
Cell system: MDA-MB-231 cells, a human breast cancer line
Knock-down reagent: single siRNA against human genes, 20 nM siRNA (0.8 pmol per well)
Time to read-out: 120 h (drug added 48 h after transfection, read 72 h later)
Challenge: camptothecin 20 nM (about EC30) for 72 h; vehicle 0.1% DMSO in parallel plates
Measurement: 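Cell viability by ATP luminescence (CellTiter-Glo) as % of non-targeting siRNA wells, and the log2 ratio of viability without drug over viability with camptothecin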
Scale: log2 vehicle/camptothecin viability: higher = stronger sensitisation to camptothecin; viability with camptothecin and viability without drug: higher = more viable cells
Call rule: 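Active genes have an RSA gene-level p-value below 0.001, computed from the ratios of their separate siRNAs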
Here is a random part of about 26,000 reagents. Over the whole deposit, 167 (0.63%) were called active. 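Calls are per gene from RSA p-values that are not deposited; an individual active-marked siRNA can sensitise only weakly.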 Reagents against one gene are numbered here. No sequences are given here.

no.	target gene	reagent no.	log2 vehicle/camptothecin viability	viability with camptothecin (% of control)	viability without drug (% of control)	Call
1	SI (sucrase-isomaltase)	1	0.153	93.6	104	inactive
2	SI (sucrase-isomaltase)	2	-0.374	47.9	36.9	inactive
3	SI (sucrase-isomaltase)	3	-0.213	144	124	inactive
4	SI (sucrase-isomaltase)	4	-0.239	71.8	60.9	inactive
5	PPP2R3A (protein phosphatase 2 regulatory subunit B''alpha)	1	-0.15	25.6	23	inactive
6	PPP2R3A (protein phosphatase 2 regulatory subunit B''alpha)	2	-0.479	60.3	43.3	inactive
7	PPP2R3A (protein phosphatase 2 regulatory subunit B''alpha)	3	-0.341	74.3	58.7	inactive
8	PPP2R3A (protein phosphatase 2 regulatory subunit B''alpha)	4	-0.441	91	67.1	inactive
9	GMEB2 (glucocorticoid modulatory element binding protein 2)	1	-0.623	37.2	24.2	inactive
10	GMEB2 (glucocorticoid modulatory element binding protein 2)	2	0.0469	94.2	97.3	inactive
11	GMEB2 (glucocorticoid modulatory element binding protein 2)	3	-0.281	76.7	63.2	inactive
12	GMEB2 (glucocorticoid modulatory element binding protein 2)	4	-0.0852	64.1	60.5	inactive
13	ASIC5 (acid sensing ion channel subunit family member 5)	1	0.0922	86	91.7	inactive
14	ASIC5 (acid sensing ion channel subunit family member 5)	2	0.0464	77.1	79.7	inactive
15	ASIC5 (acid sensing ion channel subunit family member 5)	3	-0.123	116	107	inactive
16	ASIC5 (acid sensing ion channel subunit family member 5)	4	-0.184	100	88.4	inactive

3 entries from above, sorted by “log2 vehicle/camptothecin viability”, high to low.
target gene	reagent no.	log2 vehicle/camptothecin viability	viability with camptothecin (% of control)	viability without drug (% of control)	Call
ASIC5 (acid sensing ion channel subunit family member 5)	1	0.0922	86	91.7	inactive
ASIC5 (acid sensing ion channel subunit family member 5)	2	0.0464	77.1	79.7	inactive
ASIC5 (acid sensing ion channel subunit family member 5)	3	-0.123	116	107	inactive

The list goes on:
no.	target gene	reagent no.	log2 vehicle/camptothecin viability	viability with camptothecin (% of control)	viability without drug (% of control)	Call
17	HES1 (hes family bHLH transcription factor 1)	1	-0.4	65	49.3	inactive
18	HES1 (hes family bHLH transcription factor 1)	2	-0.271	78.9	65.4	inactive
19	HES1 (hes family bHLH transcription factor 1)	3	-0.372	61.6	47.6	inactive
20	HES1 (hes family bHLH transcription factor 1)	4	-0.513	70.8	49.7	inactive
21	TOM1 (target of myb1 membrane trafficking protein)	1	-0.152	114	102	inactive
22	TOM1 (target of myb1 membrane trafficking protein)	2	0.0866	72.9	77.4	inactive
23	TOM1 (target of myb1 membrane trafficking protein)	3	0.149	77.6	86	inactive
24	TOM1 (target of myb1 membrane trafficking protein)	4	-0.332	153	121	inactive
25	DGKA (diacylglycerol kinase alpha)	1	-0.512	59.9	42	inactive
26	DGKA (diacylglycerol kinase alpha)	2	0.579	58.2	86.9	inactive
27	DGKA (diacylglycerol kinase alpha)	3	-0.315	92.3	74.2	inactive
28	DGKA (diacylglycerol kinase alpha)	4	-0.247	40.7	34.3	inactive
